Reference: PubChem BioAssay AID504834 (National Center for Advancing Translational Sciences (NCATS), 2011)
Among all 320,000 compounds or so, about 22,000 (6.9%) were called active. Inconclusive results, whose numbers are uncertain, are shown with a selection of clear calls. Calls come from the whole dose curve; as a rule, active = well fitted inhibition curve with a large enough effect; inconclusive = small, poorly fitted or top-dose-only effect, or another doubt; inactive = no such curve, though single readings can be large or run the other way. Potencies beside an inconclusive call are fits to weak or partial responses and may not hold up.

Experiment: Primary qHTS for delayed death inhibitors of the malarial parasite plastid, 96 hour incubation
Details: P. falciparum luciferase reporter growth; series mostly up to 28.7 µM; activity change, negative = inhibition: at the top concentration
Procedure, shortened: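 P. falciparum expressing integrated firefly luciferase, in erythrocytes at 2% hematocrit, 0.05% parasitemia, incubated with compounds 96 h at 37 C, 5% CO2. Growth inhibition read as loss of luminescence; two-generation exposure targets delayed-death apicoplast inhibitors.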
% is set by controls: 0 for no effect and ±100 for the full control effect; potency is the fitted concentration of half-maximal effect.

SMILES | activity change, negative = inhibition | Potency
Cc1cccc(OCc2nnc(SCC(=O)N(C)C3CCCCC3)o2)c1 | inactive: -11.8% | –
Cc1ccc(/C=C2\SC(=S)N(CCC(=O)N3CCOCC3)C2=O)cc1 | – | inconclusive: 8.28 µM [inhibitor, partial curve]
COc1ccc(OC)c2c(C)cc(N3CCN(C(=O)c4ccc(C)cc4)CC3)nc12 | – | inconclusive: 10.4 µM [inhibitor, single point]
COc1ccc(NC(=O)c2cc(-c3cccs3)on2)cc1 | inactive: -78% | –
O=C(Nc1n[nH]c(C2CCCCC2)n1)C1CCCCC1 | – | inconclusive: 18.5 µM [inhibitor, single point]
CC(=O)N1c2ccc3ccccc3c2C2C=CCC2C1c1ccc(Br)cc1 (configuration not stated) | inactive: 45.5% | –
Cn1c(=O)cc(OCCCC(=O)NCc2cccnc2)c2ccccc21 | – | inconclusive: 13.1 µM [inhibitor, partial curve, poor fit]
Clc1ccc(C[n+]2cc(-c3ccc(Cl)cc3)n3c2CCC3)cc1 | – | active: 0.37 µM
CCOC(=O)c1nc(NCCc2ccccc2)sc1C | inactive: -10.4% | –
CCN(CC)C(=O)COC(=O)c1cc(-c2ccco2)nc2ccccc12 | – | inconclusive: 5.22 µM [inhibitor, partial curve]
CN(Cc1ccncc1)C1CC(=O)N(c2ccc(Cl)cc2)C1=O (configuration not stated) | – | inconclusive: 8.28 µM [inhibitor, partial curve, poor fit]
COc1ccc(C2c3ccc(O)cc3Oc3ncn(CCN4CCOCC4)c(=N)c32)cc1OC (configuration not stated) | – | inconclusive: 4.65 µM [inhibitor, partial curve, poor fit]
CCc1ccccc1NC(=O)c1cc(-c2ccc(OC)cc2)on1 | – | inconclusive: 18.5 µM [inhibitor, single point]
COc1ccc(N(C(=O)CCC(=O)Nc2cc(C)on2)C(C(=O)NC2CCCC2)c2ccco2)cc1 (configuration not stated) | – | inconclusive: 13.1 µM [inhibitor, partial curve, poor fit]
COc1ccccc1C(=O)NCC(=O)N/N=C/c1ccncc1 | inactive: 13.5% | –
COc1cccc(-c2cc(C(=O)NC3CCCCC3)no2)c1 | inactive: 64.6% | –
CC(C)c1cc(NC(=O)CCl)on1 | – | inconclusive: 2.08 µM [inhibitor, full curve, poor fit]
Cc1cc(C=O)c(C)n1-c1ccc(NC2CCCCC2)c([N+](=O)[O-])c1 | – | inconclusive: 0.0147 µM [inhibitor, full curve]
CCc1ccc(OCC(O)CNC(C)(C)C)cc1 (configuration not stated) | – | inconclusive: 0.185 µM [inhibitor, full curve, poor fit]
CCCCN(CCCC)Cc1cc2ccccc2c2c1COC2 | – | inconclusive: 13.1 µM [inhibitor, single point]
CCCCc1c(C)[nH]c(=S)[nH]c1=O | inactive: 8.34% | –
CN(C)S(=O)(=O)c1ccc(Cl)c(NC(=O)C2CCN(S(=O)(=O)c3cccs3)CC2)c1 | – | inconclusive: 18.5 µM [inhibitor, single point]
COc1ccc(-n2c(SCC(=O)Nc3ccccc3)nc3c(c2=O)SCC3)cc1 | inactive: 0.879% | –
CCOc1cc2[nH]c(=O)n(CCCC(=O)N(C)Cc3ccccc3)c(=O)c2cc1OCC | inactive: 12% | –

SMILES | activity change, negative = inhibition | Potency
COc1ccc(CN2CC(C(=O)N3CC(C)CC(C)C3)CC2=O)cc1 (configuration not stated) | – | active: 3.7 µM
O=[N+]([O-])c1ccc(N/N=C/c2ccc(OCc3cccc4ccccc34)cc2)nc1 | – | active: 7.38 µM
CCOC(=O)c1c(NC(=O)COC(=O)/C=C/c2ccco2)sc2c1CC(C)(C)NC2(C)C | – | inconclusive: 4.15 µM [inhibitor, single point]
O=c1[nH]c(SCc2ccc(Cl)cc2)nc2ccccc12 | – | active: 13.1 µM
Cc1ccc(Oc2ccc(OCC(=O)NC3CCS(=O)(=O)C3)cc2)cc1 (configuration not stated) | – | inconclusive: 0.0828 µM [inhibitor, full curve, poor fit]
Cc1cccc(N2CCN(C(=O)COc3ccc4ccc(=O)oc4c3)CC2)c1C | – | inconclusive: 20.8 µM [inhibitor, single point]
Cc1ccc(CCN2CC(C(=O)NCc3ccco3)CC2=O)cc1 (configuration not stated) | inactive: 16.5% | –
COc1cn(-c2ccccc2)nc1C(=O)NCc1ccccc1 | inactive: -9.68% | –
CCOC(=O)C1CCCN(S(=O)(=O)Cc2ccc(Cl)cc2)C1 (configuration not stated) | – | inconclusive: 11.7 µM [inhibitor, single point]
CC(C)(C)c1csc(N/N=C/c2cccnc2)n1 | – | inconclusive: 18.5 µM [inhibitor, single point]
COc1ccc(-n2c(=O)c3c4c(sc3n(CC(=O)Nc3cc(C)[nH]n3)c2=O)CCC4)c(OC)c1 | – | inconclusive: 18.5 µM [inhibitor, single point]
CN1CN(C)C(c2ccncc2)=C1c1ccncc1 | – | inconclusive: 4.15 µM [inhibitor, single point]
Cc1c(C(=O)N/N=C/c2ccncc2)no[n+]1[O-] | inactive: 22.9% | –
CC1CN(CC(O)COc2ccccc2C(C)(C)C)CC(C)O1 (configuration not stated) | – | active: 8.28 µM
CN(C)/C=C/c1c([N+](=O)[O-])c2ccc(O)cc2n1-c1ccccc1 | – | active: 10.4 µM
Cc1ccc(NS(=O)(=O)c2ccc(-n3cccn3)cc2)cc1C | – | inconclusive: 4.65 µM [inhibitor, partial curve]
Cn1c(=O)c2c(nc(CN3CCCCC3)n2CCc2ccccc2)n(C)c1=O | – | inconclusive: 18.5 µM [inhibitor, single point]
c1csc(C2Nc3cccc4cccc(c34)N2)c1 | – | inconclusive: 11.7 µM [inhibitor, partial curve, poor fit]
Cc1ccc(CNC(=O)C(=O)NCCC2CCCCN2S(=O)(=O)c2ccccc2)cc1 (configuration not stated) | – | inconclusive: 9.28 µM [inhibitor, partial curve, poor fit]
O=C(N1CCOCC1)C12CC3CC(C1)CC(c1ccccc1)(C3)C2 | – | inconclusive: 0.0415 µM [inhibitor, full curve, poor fit]
O=C(NNC(=S)Nc1ccccc1)c1cc(Br)ccc1Cl | – | inconclusive: 18.5 µM [inhibitor, single point]
COc1ccc(N(C(=O)Nc2ccc(Cl)cc2)C2=NCCC2)cc1 | – | inconclusive: 14.7 µM [inhibitor, partial curve, poor fit]
Cc1ccc(NC(=O)c2cc(S(=O)(=O)N3CCCCC3)cs2)cc1 | – | inconclusive: 18.5 µM [inhibitor, single point]
COc1ccc(Cl)cc1NC(=O)CN(C)C(=O)c1cc2c(s1)CCC(C)C2 (configuration not stated) | – | inconclusive: 5.86 µM [inhibitor, partial curve, poor fit]

SMILES | activity change, negative = inhibition | Potency
CC1CCN(c2c(NCC3CCC(C(=O)NCc4ccccc4Cl)CC3)c(=O)c2=O)CC1 (configuration not stated) | – | inconclusive: 18.5 µM [inhibitor, single point]
O=C(NCCN1C(=O)S/C(=C/c2cccnc2)C1=O)c1cccs1 | – | inconclusive: 0.37 µM [inhibitor, full curve, poor fit]
CCOc1ccc(-c2cn(-c3ccc(OC)cc3)c(SC)n2)cc1 | – | inconclusive: 0.522 µM [inhibitor, full curve, poor fit]
Cn1cccc1Cc1nnc(SCC(=O)NCC2CCCO2)n1C (configuration not stated) | inactive: 13.3% | –
Cc1ccccc1NC(=O)CN1CCC(C(=O)c2ccc3c(c2)OCCO3)CC1 | – | inconclusive: 10.4 µM [inhibitor, single point]
Cn1c(SCC(=O)O)nc2ccccc2c1=O | – | inconclusive: 4.65 µM [inhibitor, partial curve, poor fit]
c1cc(Nc2ncnc3sc4c(c23)CCC4)ccn1 | inactive: 13.5% | –
O=C(CCC1CCN(C(=O)c2cncs2)CC1)Nc1ccccc1 | inactive: 11.5% | –
Cc1cc(C(=O)NC2CC2)c2ccccc2n1 | – | inconclusive: 18.5 µM [inhibitor, single point]
O=C(Oc1ccc(F)cc1)c1cccnc1 | – | inconclusive: 11.7 µM [inhibitor, single point]
Cc1nn(CC(=O)NCC2CCCO2)c(=O)c2ccccc12 (configuration not stated) | inactive: 0% | –
CCN(CC)c1nc(N2CCN(CCO)CC2)nc2ccccc12 | – | inconclusive: 18.5 µM [inhibitor, single point]
COc1ccc(N2C(=O)CS/C2=N\C(=S)Nc2ccccc2)cc1 | – | inconclusive: 1.65 µM [inhibitor, full curve]
COc1ccc2nc(SCC(=O)NC(C)(C)C)[nH]c2c1 | inactive: -28.6% | –
CCOC(=O)c1sc(NS(=O)(=O)c2ccccc2)nc1C | – | inconclusive: 18.5 µM [inhibitor, single point]
COc1ccc(C2=NN(C(=O)CN3CCOCC3)C(c3nc4ccccc4[nH]3)C2)cc1 (configuration not stated) | inactive: 35.4% | –
Cc1nccn1CC(O)Cn1c2ccccc2c2ccccc21 (configuration not stated) | inactive: -12.1% | –
CC(C)NC(=O)c1ccc(COc2cc(Cl)ccc2Cl)o1 | inactive: 14.6% | –
COc1cc2c(C(=O)N3CCN(c4cccc(Cl)c4)CC3)cn(C)c(=O)c2cc1OC | – | inconclusive: 2.94 µM [inhibitor, full curve, poor fit]
CC(=O)Nc1ccc(S(=O)(=O)NCC(=O)OCC(=O)Nc2sccc2C(N)=O)cc1 | inactive: -6.18% | –
CCOC(=O)c1cc2c(nc1C)-c1cc(Cl)cc(Cl)c1OC2O (configuration not stated) | – | active: 4.65 µM
CCOC(=O)c1sc(NC(=O)CSc2nnc(Cc3ccccc3)o2)c(C(=O)OCC)c1C | – | inconclusive: 11.7 µM [inhibitor, partial curve, poor fit]
Cc1ccc(CN2CCC(n3nccc3NC(=O)CCOc3ccccc3)CC2)o1 | inactive: 36.8% | –
CC(C)(CNC(=O)c1cccc(S(=O)(=O)Nc2ccc(Br)cc2)c1)N1CCOCC1 | – | inconclusive: 9.28 µM [inhibitor, partial curve]

Exported as tab-separated lines: entries from further up
SMILES	activity change, negative = inhibition	Potency
O=C(CCC1CCN(C(=O)c2cncs2)CC1)Nc1ccccc1	inactive: 11.5%	–
Cc1cc(C(=O)NC2CC2)c2ccccc2n1	–	inconclusive: 18.5 µM [inhibitor, single point]
O=C(Oc1ccc(F)cc1)c1cccnc1	–	inconclusive: 11.7 µM [inhibitor, single point]
Cc1nn(CC(=O)NCC2CCCO2)c(=O)c2ccccc12 (configuration not stated)	inactive: 0%	–
CCN(CC)c1nc(N2CCN(CCO)CC2)nc2ccccc12	–	inconclusive: 18.5 µM [inhibitor, single point]
